PubChem BioAssay AID493014 (National Center for Advancing Translational Sciences (NCATS), 2011)
Some of the results follow. These are further read-outs of the screen, such as a control signal, another cell line or another target. No call is given for them. Compounds called inactive in the main read-out are mostly missing here. The note in brackets gives the kind of curve behind each potency; many fits are weak.

Experiment: qHTS Assay to Find Inhibitors of Chronic Active B-Cell Receptor Signaling
Conditions: ABC-DLBCL IkBa-CBG/CBR reporter, luminescence ratio (green luciferase fused to IkBa over red control in TMD8 lymphoma cells), 4 h
Method in brief: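 Compounds up to 46 uM were incubated four hours with TMD8 cells whose green CBG68 luciferase is fused to IkappaBalpha; red CBR luminescence normalised the signal, and concentration-effect curves were fitted to fusion, red and ratio data.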

[1] = measured here: CBR red luminescence, cell number
[2] = measured here: IkBa-CBG green luminescence

Row | SMILES | AC50 [1] | AC50 [2]
1 | CCn1c(=O)c(=O)[nH]c2cc(C(=O)NC3CCCc4ccccc43)ccc21 (configuration not stated) | 32.6 µM [falling, single point] | 
2 | COc1ccc(N2CCN(C(=O)CSc3ccc(C)cc3)CC2)cc1 | 10 µM [rising, partial curve, poor fit] | 
3 | COc1ccccc1-n1c(SCc2cc(=O)oc3cc(O)ccc23)nc2ccccc2c1=O | 4.11 µM [rising, partial curve, poor fit] | 
4 | N#Cc1c(N2CCOCC2)nc(N)c2c(N)nc3c(c12)CC(CCl)O3 (configuration not stated) | 0.562 µM [falling, full curve, poor fit] | 
5 | O=C(NC(=S)NCc1ccco1)c1cccc(Cl)c1 | 20 µM [rising, partial curve, poor fit] | 
6 | CCc1ccc(-c2cc(C(F)(F)F)n3nc(C(=O)Nc4c(C)nn(Cc5ccccc5Cl)c4C)cc3n2)s1 | 0.00461 µM [rising, full curve, poor fit] | 
7 | CC1(C)N=C(N)N=C(N)N1c1cccc(CN)c1 | 17.8 µM [rising, single point] | 
8 | CCCSc1nnc2c(n1)OC(c1ccc(OCC(=O)O)cc1)Nc1ccccc1-2 (configuration not stated) | 10 µM [falling, partial curve] | 
9 | COc1ccccc1CNc1ncc(-c2ccccc2)n1C | 10 µM [falling, partial curve, poor fit] | 
10 | CCN1CCN(Cc2ccc(OCc3ccccc3)cc2)CC1 | 3.66 µM [rising, partial curve, poor fit] | 
11 | C/C(=N\NC(=O)CNC(=O)C(c1ccccc1)c1ccccc1)c1ccc(C(C)(C)C)cc1 | 29.1 µM [rising, partial curve, poor fit] | 
12 | CCOc1ccc(NCc2nnc(SCc3ccc(Cl)cc3)n2-c2ccccc2)cc1 | 29.1 µM [falling, single point] | 
13 | CC(C)NC(=S)N1CCn2c(nc3ccccc32)C1 | 18.4 µM [rising, partial curve, poor fit] | 
14 | O=C(CN1C(=O)NC2(CCCC2)C1=O)OCc1ccccc1 | 2.59 µM [rising, full curve] | 
15 | CCCCNC(=O)Oc1c(Br)cc2sc(=O)oc2c1Br | 10 µM [falling, partial curve, poor fit] | 
16 | COc1cc(Cc2nccc3cc(OC)c(OC)cc23)c(NC(C)=O)cc1OC | 15.8 µM [rising, partial curve, poor fit] | 12.6 µM [falling, partial curve, poor fit]
17 | O=C(O)C(CO)N=Cc1c(O)c2ccccc2oc1=O (configuration not stated) | 3.98 µM [falling, partial curve] | 
18 | CCCNC(=O)C1CCN(Cc2cc3ccccc3n2Cc2ccccc2)CC1 | 35.5 µM [falling, partial curve, poor fit] | 
19 | CN(C)C=NC(=O)c1cc(C(=O)c2ccccc2)c[nH]1 | 12.6 µM [falling, partial curve, poor fit] | 
20 | COc1ccc(NC(=O)/C(=C\c2cc(OC)c(OC)cc2[N+](=O)[O-])NC(=O)c2ccccc2)cc1 | 35.5 µM [rising, partial curve, poor fit] | 
21 | O=C1c2nc3ccccn3c2C(=O)N1Cc1ccccc1 | 3.16 µM [falling, full curve] | 

3 successive compounds out of the list so far, for reference:
Row | SMILES | AC50 [1] | AC50 [2]
7 | CC1(C)N=C(N)N=C(N)N1c1cccc(CN)c1 | 17.8 µM [rising, single point] | 
8 | CCCSc1nnc2c(n1)OC(c1ccc(OCC(=O)O)cc1)Nc1ccccc1-2 (configuration not stated) | 10 µM [falling, partial curve] | 
9 | COc1ccccc1CNc1ncc(-c2ccccc2)n1C | 10 µM [falling, partial curve, poor fit] | 

Carrying on.

Row | SMILES | AC50 [1] | AC50 [2]
22 | CC(C)c1ccc(-c2nnc(N)s2)cc1 | 16.4 µM [rising, partial curve, poor fit] | 
23 | Nc1nonc1C(=O)NCCNCc1c(OCc2ccccc2F)ccc2ccccc12 | 29.1 µM [falling, single point] | 
24 | COc1ccc(C2CC(c3ccccc3)=NN2C(=O)c2ccc(F)cc2)cc1 (configuration not stated) | 2.82 µM [rising, full curve, poor fit] | 
25 | CCCOc1ccc(N2CC(C(=O)Nc3ccccc3OC)CC2=O)cc1 (configuration not stated) | 9.2 µM [rising, partial curve, poor fit] | 
26 | O=C(NCc1ccccn1)c1cccc(NS(=O)(=O)c2ccc(Br)cc2)c1 | 3.66 µM [rising, full curve] | 
27 | CC(=O)NCCC(=O)Nc1cc(S(=O)(=O)N2CCCCC2)ccc1Oc1ccccc1 | 35.5 µM [rising, partial curve, poor fit] | 
28 | N/C(=N\OC(=O)c1cccc2ccccc12)c1cccc([N+](=O)[O-])c1 | 11.2 µM [rising, partial curve, poor fit] | 
29 | CN(CC(=O)Nc1cccc(F)c1)C(=O)c1ccc(-c2cccc(C(F)(F)F)c2)o1 | 29.1 µM [falling, single point] | 
30 | CC[n+]1c(C)sc2sc3ccccc3c21 | 1 µM [falling, full curve, poor fit] | 
31 | CN1CCN(C(=O)CCCN2C(=O)/C(=C/c3cccc(Br)c3)SC2=S)CC1 | 6.31 µM [falling, partial curve] | 
32 | c1coc(CNCCCN2CCOCC2)c1 | 2.59 µM [rising, full curve, poor fit] | 
33 | CC(Nc1nc(N2CCN(CCO)CC2)nc2ccccc12)c1ccccc1 (configuration not stated) | 12.6 µM [rising, single point] | 
34 | O=Nc1c(O)n(Cc2ccc(Cl)cc2)c2ccccc12 | 35.5 µM [falling, single point] | 
35 | O=C(c1cc(-c2ccc(Br)cc2)on1)N1CCOCC1 | 6.31 µM [falling, full curve] | 
36 | Cc1nc2nc(-c3cccnc3)[nH]n2c(=O)c1Cc1ccccc1 | 1.64 µM [falling, full curve] | 
37 | Cc1ccc2cc(CCNC(=O)C(C)C)c(=O)[nH]c2c1 | 6.51 µM [rising, single point] | 
38 | COc1cccc(N2CCN(C(=O)c3ccc4nc(N5CCCCC5)sc4c3)CC2)c1 | 11.6 µM [falling, partial curve, poor fit] | 
39 | CCOc1ncccc1C(=O)Nc1cc(S(=O)(=O)N2CCCCC2)ccc1C | 3.66 µM [falling, partial curve, poor fit] | 
40 | COc1ccc(C2C(C(=O)OCC(=O)Nc3ccc(C)cc3)CCC(=O)N2c2ccc(OC)cc2)cc1 (configuration not stated) | 2.06 µM [rising, full curve, poor fit] | 
41 | O=C1c2ccccc2-c2onc3ccc(NCc4ccco4)c1c23 | 14.1 µM [falling, partial curve] | 
42 | O=C(/C=C/c1ccc(Br)cc1)c1ccc(NC2=NCCCS2)cc1 | 18.4 µM [falling, single point] | 

Row | SMILES | AC50 [1] | AC50 [2]
43 | Cc1cccnc1NC(=O)c1sc2ccccc2c1Cl | 11.2 µM [falling, partial curve, poor fit] | 
44 | CCn1nc(C)c(Br)c1-c1nc(CS(=O)(=O)c2ccsc2)no1 | 0.355 µM [falling, full curve, poor fit] | 
45 | CC(C)(C)n1nnnc1C(c1cccnc1)N1CCN(c2cccc(C(F)(F)F)c2)CC1 (configuration not stated) | 0.00517 µM [rising, full curve, poor fit] | 
46 | COc1ccccc1CNCC(=O)Nc1ccc(N(C)C)cc1 | 12.6 µM [falling, partial curve] | 
47 | CCCCC#Cc1cncc(C(=O)N/N=C/c2cccc(OC)c2)c1 | 3.98 µM [falling, partial curve] | 
48 | Cn1c(SCC(=O)Nc2cccc(NC(=O)c3cccs3)c2)nnc1-c1ccncc1 | 35.5 µM [falling, single point] | 
49 | CCS(=O)(=O)N1Cc2ccccc2CC1C(=O)Nc1nc2ccccc2s1 (configuration not stated) | 0.461 µM [falling, full curve] | 
50 | Cc1c(NC(=O)COC(=O)CCC(=O)c2ccc(Cl)cc2)c(=O)n(-c2ccccc2)n1C | 12.6 µM [falling, partial curve, poor fit] | 
51 | Cc1cccc(CSc2nc3sc(C)c(C)c3c(=O)n2Cc2ccco2)c1 | 23.1 µM [falling, single point] | 
52 | Clc1nc2c(ccc3ccccc32)[nH]1 | 3.55 µM [rising, partial curve, poor fit] | 
53 | O=C1C(c2c(O)[nH]c3ccccc23)=Nc2ccccc21 | 0.501 µM [rising, full curve, poor fit] | 
54 | COc1ccccc1NC(=O)Nc1ccc(C(=O)N2CCCCC2)cc1 | 8.91 µM [falling, partial curve, poor fit] | 12.6 µM [rising, single point]
55 | Cc1ccc(S(=O)(=O)N(C)C)cc1NC(=O)COC(=O)/C=C/c1ccc2ccccc2n1 | 20.6 µM [falling, single point] | 
56 | COc1cc(CC(=O)OCC(=O)NC2CCCCCC2)cc(OC)c1OC | 7.31 µM [rising, partial curve, poor fit] | 
57 | O=C(CCc1nc2ccccc2c(=O)[nH]1)Nc1nnc(SCc2ccccc2F)s1 | 29.1 µM [rising, single point] | 
58 | CCOC(=O)c1ccccc1NC(=O)COC(=O)c1c(CC)noc1C | 20.6 µM [falling, single point] | 
59 | O=C(NCc1cccnc1)/C(=C\c1ccc(-c2ccc(Br)cc2)o1)S(=O)(=O)c1ccccc1 | 7.31 µM [falling, partial curve, poor fit] | 23.1 µM [rising, partial curve, poor fit]
60 | CCOc1ccc(-c2nc(-c3cccs3)c(CC(=O)O)s2)cc1OC | 5.62 µM [rising, single point] | 
61 | COc1ccccc1N(CC(=O)Nc1ccccc1C(=O)NC(C)C)S(C)(=O)=O | 4.47 µM [rising, full curve] | 
62 | Cn1cccc1C(=O)OCC(=O)NCCc1ccccc1 | 32.6 µM [rising, single point] | 
63 | Cc1ccc(C)c(NC(=S)N=Nc2c(O)n(C)c3ccc(S(=O)(=O)N4CCOCC4)cc23)c1 | 20.6 µM [falling, single point] | 4.61 µM [falling, full curve]
